Results from PubChem BioAssay AID493200 (National Center for Advancing Translational Sciences (NCATS), 2011).
Inconclusive results, whose numbers are uncertain, are shown with a selection of clear calls. Potencies beside an inconclusive call are fits to weak or partial responses and may not hold up. Activity calls are given as the source filed them. Calls come from the whole dose curve; as a rule, active = well fitted activation curve with a large enough effect; inconclusive = small, poorly fitted or top-dose-only effect; inactive = no such curve, though single readings can be large or run the other way.

Test: qHTS Assay for Rab9 Promoter Activators: Initial hit validation from the primary screen
Conditions: Huh7 Rab9 promoter luciferase reporter, 24 h; series mostly up to 46.1 µM
Excerpt: NIH Chemical Genomics Center [NCGC] NIH Molecular Libraries Probe Production centers Network [MLPCN] MLPCN Grant: MH089537-01 Assay Submitter (PI): Yiannis A. Ioannou NCGC Assay Overview: Niemann Pick Type C (NPC) is a rare neurodegenerative lipidosis that is characterized by lipid storage in the endosomal/lysosomal system. Treatment modalities for this devastating disease are currently non-existent due to the severe obstacles associated with accessing the central nervous system with proteins or genes (Ioannou, 2000). We have developed a new paradigm, termed "Orphan Receptor Bypass Therapy" (ORByT), to address these disorders. This paradigm posits the existence of endogenous "suppressor" proteins whose expression can dramatically improve LSD pathogenesis. The goal is the identification/discovery of small chemical compounds that can modulate the expression of these proteins and provide a new treatment modality for these devastating disorders. One such protein whose overexpression reverses aspects of the NPC phenotype is Rab9. We have developed and optimized a cell based luciferase reporter assay in 1536 well format for the identification of up-regulators of the Rab9 promoter. This assay presents data on the validation of hits from the primary screen.
The Rab9 promoter is cloned in front of the luciferase reporter gene, therefore […] promoter activation results in luciferase expression. Frozen stock of the Rab9 promoter transfected Huh7 cells were obtained from the laboratory of Dr. Yiannis Ioannou (The Mount Sinai School of Medicine, New York, NY). Cells were propagated and maintained at NCGC in medium containing RPMI-1640 supplemented with 10% FBS, 2mM L-glutamine, and 50ug/ml penicillin/streptomycin. Cells were harvested in and plated for assays in OP-MEM I reduced-serum medium supplemented with 10% FBS. The Amplite luciferase reporter gene assay kit was purchased from ABD Bioquest and prepared/stored according to manufacturers recommendations. qHTS Assay Setup: 1.Dispensed 5ul of Huh7 cells stably expressing Rab9-luciferase at a density of 1500 cells per well 1536-well plates. 2.Incubate cells at 37C, 5% CO2, and 95% humidity for 2 hours. 3.Transferred 23nl per well of compound in DMSO solution. 4.Incubated at 37C, 5% CO2, and 95% humidity for 24 hours. 5.Dispensed 3ul per well of Amplite reagent(ABD Bioquest) per well. 6.Incubate at ambient for 10 minutes. 7.Read using the luminescence protocol on the ViewLux plate reader (Perkin Elmer).
Potency is the fitted concentration of half-maximal effect.

Potency, inactive:
COc1ccc([N+](=O)[O-])cc1COc1ccc2c(-c3ccccc3)cc(=O)oc2c1
COc1ccc(-n2c(N)c(C(=O)NCc3ccco3)sc2=S)cc1
CN(C)C(CNC(=O)CNC(=O)c1ccc2ccccc2c1)c1ccccc1 (centres undefined)
CC1CC(C)CN(CC(=O)N2CCOCC2)C1 (centres undefined)

Potency, inconclusive:
Cc1ccc(NC(=O)c2ncc(Cl)c(Cl)c2Cl)cc1C 62.8 µM [activator, partial curve]
COc1ccc(C(=O)OCC(=O)N2CCCC2=O)c(OC)c1 49.9 µM [activator, partial curve]
Cc1ccc(S(=O)(=O)/N=C(/Nc2ccccn2)c2ccc(Cl)cc2)cc1 125 µM [activator, partial curve]
CC1CCCN(C(=S)Nc2ccc(Nc3ccccc3)cc2)C1 (centres undefined) 19.9 µM [activator, partial curve]
COc1ccc(-c2cc(C(=O)Nc3ccccc3F)on2)cc1 39.7 µM [activator, partial curve]
COc1ccc(-n2cc(-c3ccc(Cl)cc3)[nH]c2=S)cc1 0.996 µM [activator, full curve]
CC(=O)c1c(C)[nH]c(C(=O)Nc2cccc(S(=O)(=O)N(C)C)c2)c1C 49.9 µM [activator, partial curve]
Cc1ccc2nc(NC(=O)CCn3cccc3)sc2c1 19.9 µM [activator, partial curve]
CCC1=[N+](CC(=O)c2ccc(C)cc2)CCn2cccc21 2.5 µM [activator, full curve]
O=C(CCCOc1ccc(Cl)cc1)N1CCCCC1 39.7 µM [activator, partial curve]

Nothing new here: an excerpt of the list.
Potency, inconclusive:
COc1ccc(-n2cc(-c3ccc(Cl)cc3)[nH]c2=S)cc1 0.996 µM [activator, full curve]
CC(=O)c1c(C)[nH]c(C(=O)Nc2cccc(S(=O)(=O)N(C)C)c2)c1C 49.9 µM [activator, partial curve]

Next part.

Potency, active:
COC(=O)c1ccc(NC(=O)c2ccc3nc(C)sc3c2)cc1 0.56 µM
Cc1ccc(C#N)c(SCC(=O)Nc2nccs2)n1 0.791 µM
O=C(NCCc1ccccc1)c1cc2ncc(Br)cn2n1 25 µM
CCOC(=O)c1ccc(-c2nnc(-c3ccc(Cl)cc3Cl)o2)cc1 0.705 µM
Cc1ccc2c(c1)sc1nc(=O)n(-c3ccccc3)c(=O)n12 0.499 µM
